Results are given in words; binding and its absence hold for the method and conditions named. Some results given as binding are weak or reduced against the parent protein; the word gives no strength.
Columns and labels:
[1] = target: T1, Porcine liver acylpeptide hydrolase (porcine) (UniProt P19205); assay: enzyme inhibition kinetics; porcine APEH in a reaction mixture with trypsin, α-chymotrypsin, elastase, carboxypeptidase Y, subtilisin and thrombin; data not shown; both purified
T1 sequence: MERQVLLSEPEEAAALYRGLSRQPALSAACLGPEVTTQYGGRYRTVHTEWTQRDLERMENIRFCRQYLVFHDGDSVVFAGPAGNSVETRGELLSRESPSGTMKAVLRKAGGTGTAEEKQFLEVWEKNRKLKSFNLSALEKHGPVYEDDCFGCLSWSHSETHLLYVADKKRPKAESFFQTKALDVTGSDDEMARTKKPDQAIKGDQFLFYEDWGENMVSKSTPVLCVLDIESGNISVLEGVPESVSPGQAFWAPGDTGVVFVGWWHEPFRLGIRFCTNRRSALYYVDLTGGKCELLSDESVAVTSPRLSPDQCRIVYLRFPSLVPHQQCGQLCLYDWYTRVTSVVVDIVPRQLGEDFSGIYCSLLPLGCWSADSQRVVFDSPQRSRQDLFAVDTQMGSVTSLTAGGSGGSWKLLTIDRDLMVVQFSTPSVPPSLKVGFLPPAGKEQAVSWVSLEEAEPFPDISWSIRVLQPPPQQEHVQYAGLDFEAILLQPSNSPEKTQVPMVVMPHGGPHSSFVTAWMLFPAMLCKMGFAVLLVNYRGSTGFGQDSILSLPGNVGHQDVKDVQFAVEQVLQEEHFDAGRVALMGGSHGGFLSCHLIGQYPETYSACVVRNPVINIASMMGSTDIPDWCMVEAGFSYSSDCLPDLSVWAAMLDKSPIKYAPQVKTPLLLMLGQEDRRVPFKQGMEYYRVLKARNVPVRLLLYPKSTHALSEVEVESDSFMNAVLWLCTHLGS

[2] = target: SsCEI 4 (Sulfolobus solfataricus); assay: SEC; 100 µM peptide solutions on a BioSep SEC-S2000 column, 50 mM phosphate buffer pH 6.8, 1.0 mL/min; apparent masses from a calibration curve of synthetic peptides; both purified
[3] = target: SsCEI 2 (Sulfolobus solfataricus); assay: as above
[4] = target: SsCEI 3 (Sulfolobus solfataricus); assay: as above

B1: SsCEI 4 (peptide)
peptide: TILAEIKNINAD
modifications: C-terminal amide; free amino group at the N-terminus (not acetylated)
**Q.** Which results are given for B1?
**A.** binding [1]: binds; binding [2]: no binding (tested: 100 µM)

B2: SsCEI 2 (peptide)
peptide: TILLEIKNINAD
modifications: C-terminal amide; free amino group at the N-terminus (not acetylated)
**Q.** With B2 as the binder, how does the binding [3] read?
**A.** no binding (tested: 100 µM)

B3: SsCEI 3 (peptide)
peptide: YAIDTILAEIKNINAD
modifications: C-terminal amide; free amino group at the N-terminus (not acetylated)
**Q.** Which binding [4] does the source give for B3 here?
**A.** no binding (tested: 100 µM)

— publication PMC3189933, “Acylpeptide Hydrolase Inhibition as Targeted Strategy to Induce Proteasomal Down-Regulation” (PLoS ONE, 2011)
